Results from PubChem BioAssay AID256 (DTP/NCI, 2004).
The list does not hold the whole screen: it is rich in T/C values a quarter to a half above the control, in often repeated tests (any T/C) and in doses without a T/C. Other doses and runs of a compound stand elsewhere. T/C: endpoint of the treated group in % of that of the vehicle group. Some doses have a count of surviving animals in place of a T/C: the source files T/C as zero there, which appears to mark a toxic dose or a test without result, not a measured value. Some doses without a T/C left all or most animals alive at the check, yet need not have been tolerated: survival well below the control is almost never listed, so the zero probably covers shortened survival too. Counts of survivors are from the toxicity check (mostly the fifth day) where no day follows; animals may have died later. Schedule codes are those of the source, taken here to give the interval after Q, in days (D) or hours (H), and the number of doses after X. Some entries hold several experiments; the values are given in rising order. For survival time, this PubChem deposit counts one and a half times the control or more as active, and values a quarter to a half above the control carry no call in these data; other NCI protocols may use other cut-offs. Additions like (4×) stand for listed records that agree. Some T/C values are followed by the survivors on the day toxicity was checked, most often the fifth; without a count, all were alive then.

System: CD2F1 mice, L1210 leukemia ip, survival T/C
Experiment: NCI In Vivo Anticancer Drug Screen. Data for tumor model L1210 Leukemia (intraperitoneal) in CD2F1 (CDF1) mice
Details: higher T/C = longer survival
How it was run: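 Activity against a transplanted murine tumor was judged by comparing the compound group with a vehicle group. The outcome in the treated animals was divided by that in the controls.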

[1] = T/C endpoint: median survival time, dose: 5.0 mg/kg/injection, schedule: Q01DX009 (ip), vehicle: saline with Tween-80
[2] = T/C endpoint: mean survival time, dose: 200.0 mg/kg/injection, schedule: Q04DX003 (ip), vehicle: saline with Tween-80
[3] = T/C endpoint: mean survival time, dose: 400.0 mg/kg/injection, schedule: Q04DX003 (ip), vehicle: saline with Tween-80
[4] = T/C endpoint: mean survival time, dose: 300.0 mg/kg/injection, schedule: Q01DX001 (ip), vehicle: saline
[5] = T/C endpoint: mean survival time, dose: 100.0 mg/kg/injection, schedule: Q01DX009 (ip), vehicle: saline with Tween-80
[6] = T/C endpoint: mean survival time, dose: 75.0 mg/kg/injection, schedule: Q01DX001 (ip), vehicle: saline
[7] = T/C endpoint: mean survival time, dose: 150.0 mg/kg/injection, schedule: Q01DX001 (ip), vehicle: saline
[8] = T/C endpoint: mean survival time, dose: 100.0 mg/kg/injection, schedule: Q04DX003 (ip), vehicle: saline
[9] = T/C endpoint: mean survival time, dose: 100.0 mg/kg/injection, schedule: Q04DX003 (ip), vehicle: saline with Tween-80
[10] = T/C endpoint: mean survival time, dose: 400.0 mg/kg/injection, schedule: Q01DX001 (ip), vehicle: saline with Tween-80
[11] = T/C endpoint: mean survival time, dose: 400.0 mg/kg/injection, schedule: Q01DX009 (ip), vehicle: saline with Tween-80
[12] = T/C endpoint: mean survival time, dose: 400.0 mg/kg/injection, schedule: Q01DX009 (ip), vehicle: saline

SMILES: CCOC(=O)Nc1cc2c(c(N)n1)N=C(c1ccccc1)CN2
- T/C (T/C endpoint: median survival time, dose: 1.25 mg/kg/injection, schedule: Q01DX009 (ip), vehicle: saline with Tween-80): 103, 112, 114, 136 % of control
- T/C (T/C endpoint: median survival time, dose: 2.5 mg/kg/injection, schedule: Q01DX009 (ip), vehicle: saline with Tween-80): 118, 130, 135, 154 % of control
- T/C [1]: 118, 136, 176 % of control
- survivor count [1]: 5 of 6
- survivor count (T/C endpoint: median survival time, dose: 10.0 mg/kg/injection, schedule: Q01DX009 (ip), vehicle: saline with Tween-80): 0 of 6 and 1 of 6
- survivor count (T/C endpoint: median survival time, dose: 20.0 mg/kg/injection, schedule: Q01DX009 (ip), vehicle: saline with Tween-80): 0 of 6

SMILES: CCCCCOS(=O)(=O)c1ccc(Cl)c([N+](=O)[O-])c1
- survivor count [2]: 2 of 6
- survivor count [3]: 0 of 6

SMILES: Cc1c2[nH]c(c1CCC(=O)O)/C=c1\[n-]/c(c(C)c1CCC(=O)O)=C\c1[n-]c(c(C)c1C(C)O)/C=c1\[nH]/c(c(C)c1C(C)O)=C\2.[Cl][Pt+2][Cl] (configuration not stated)
- survivor count (T/C endpoint: mean survival time, dose: 200.0 mg/kg/injection, schedule: Q04DX003 (ip), vehicle: Klucel (hydroxypropylcellulose) (HPC)): 4 of 4

SMILES: N#CCCCCCN=[N+]=[N-]
- survivor count [4]: 0 of 6

SMILES: COC(=Nc1ccccc1)SSC(C)C
- survivor count [5]: 5 of 10
- survivor count (T/C endpoint: mean survival time, dose: 200.0 mg/kg/injection, schedule: Q01DX009 (ip), vehicle: saline with Tween-80): 0 of 10

SMILES: O=C(Sc1ccc([N+](=O)[O-])cc1)C(=O)Sc1ccc([N+](=O)[O-])cc1
- survivor count (T/C endpoint: mean survival time, dose: 25.0 mg/kg/injection, schedule: Q01DX009 (ip), vehicle: saline with Tween-80): 3 of 3

SMILES: O=C=NC(c1ccccc1)(c1ccccc1)c1ccccc1
- survivor count [3]: 2 of 6

SMILES: CC(=O)OC1C=CC(OC(C)=O)O1 (configuration not stated)
- survivor count (T/C endpoint: mean survival time, dose: 15.0 mg/kg/injection, schedule: Q01DX001 (ip), vehicle: saline): 3 of 6
- survivor count (T/C endpoint: mean survival time, dose: 30.0 mg/kg/injection, schedule: Q01DX001 (ip), vehicle: saline): 0 of 6
- survivor count [6]: 0 of 6
- survivor count [7]: 0 of 6
- survivor count [4]: 0 of 6

SMILES: C/C=C1\CC2C=CC1C2 (configuration not stated) (tested in a mixture with another compound)
- survivor count (T/C endpoint: mean survival time, dose: 322.0 mg/kg/injection, schedule: Q01DX009 (ip), vehicle: saline with Tween-80): 6 of 6

SMILES: O=S1(=O)CC(Cl)C(Cl)C1 (configuration not stated)
- survivor count (T/C endpoint: mean survival time, dose: 100.0 mg/kg/injection, schedule: Q04DX003 (ip), vehicle: alcohol): 0 of 6
- survivor count (T/C endpoint: mean survival time, dose: 200.0 mg/kg/injection, schedule: Q04DX003 (ip), vehicle: alcohol): 0 of 6

SMILES: CC1NCCCNCCCNC(C)c2cccc1n2 (configuration not stated)
- survivor count (T/C endpoint: mean survival time, dose: 100.0 mg/kg/injection, schedule: Q04DX002 (ip), vehicle: saline): 0 of 3
- survivor count (T/C endpoint: mean survival time, dose: 200.0 mg/kg/injection, schedule: Q04DX002 (ip), vehicle: saline): 0 of 3

SMILES: CC(=O)Nc1nc2ncc(/C=C/c3ccccc3)nc2c(=O)[nH]1
- survivor count (T/C endpoint: mean survival time, dose: 300.0 mg/kg/injection, schedule: Q01DX001 (ip), vehicle: other): 2 of 6

SMILES: CN(CCO)C1=C(N2CC2)C(=O)C(N(C)CCO)=C(N2CC2)C1=O
- T/C (T/C endpoint: mean survival time, dose: 1.0 mg/kg/injection, schedule: Q01DX009 (ip), vehicle: saline): 145 % of control

SMILES: c1ccc(C(c2ccccc2)c2ccccc2)cc1
- survivor count [3]: 6 of 6

SMILES: CC(=O)Nc1ccc2nc3ccc(NC(C)=O)cc3[n+](-c3ccccc3)c2c1
- T/C (T/C endpoint: mean survival time, dose: 25.0 mg/kg/injection, schedule: Q01DX007 (ip), vehicle: saline): 138 % of control
- T/C (T/C endpoint: mean survival time, dose: 25.0 mg/kg/injection, schedule: Q01DX009 (ip), vehicle: saline): 130 % of control
- T/C (T/C endpoint: mean survival time, dose: 50.0 mg/kg/injection, schedule: Q03DX003 (ip), vehicle: saline): 126 % of control
- T/C (T/C endpoint: mean survival time, dose: 50.0 mg/kg/injection, schedule: Q04DX003 (ip), vehicle: saline): 137 % of control
- T/C (T/C endpoint: mean survival time, dose: 100.0 mg/kg/injection, schedule: Q03DX003 (ip), vehicle: saline): 134 % of control
- T/C [8]: 138 % of control

SMILES: COc1cc([C@@H]2c3cc4c(c(O)c3C[C@H]3COC(=O)[C@@H]32)OCO4)cc(OC)c1OC
- T/C (T/C endpoint: mean survival time, dose: 1000.0 micrograms/kg/injection, schedule: Q01DX009 (ip), vehicle: saline): 126 % of control

SMILES: COc1cc2cc3c4cc(OC)c(OC)cc4cc[n+]3c(C)c2cc1OC
- T/C (T/C endpoint: mean survival time, dose: 67.0 mg/kg/injection, schedule: Q04DX003 (ip), vehicle: saline): 125 % of control
- T/C [9]: 134 % of control (2×)
- T/C [8]: 125 and 131 % of control
- T/C (T/C endpoint: mean survival time, dose: 150.0 mg/kg/injection, schedule: Q04DX003 (ip), vehicle: saline): 131 % of control
- T/C [2]: 136 % of control (2×)
- T/C [3]: 139 % of control (2×)

SMILES: CSc1ncc(C(=O)O)c(SC(C)C)n1
- survivor count [10]: 3 of 6

SMILES: CC(C)(C)OC(=O)NCC(=O)ON1C(=O)CCC1=O
- survivor count [3]: 3 of 6

SMILES: CC1=NCCCN=C(C)C(C)=NCCCN=C1C.[Ni+2].[O-][Cl+3]([O-])([O-])O
- survivor count (T/C endpoint: mean survival time, dose: 100.0 mg/kg/injection, schedule: Q04DX002 (ip), vehicle: saline with Tween-80): 0 of 3
- survivor count [8]: 0 of 6
- survivor count (T/C endpoint: mean survival time, dose: 200.0 mg/kg/injection, schedule: Q04DX002 (ip), vehicle: saline with Tween-80): 0 of 3

SMILES: O=C(O)C1C2CC(C1C(=O)O)C(C(=O)O)C2C(=O)O (configuration not stated)
- survivor count [11]: 5 of 6

SMILES: COc1cccc(CCNc2ccncc2N)c1
- survivor count [7]: 0 of 6
- survivor count [4]: 0 of 6

SMILES: O=c1[nH]c(=O)n2ncc(Br)c2[nH]1
- survivor count (T/C endpoint: median survival time, dose: 200.0 mg/kg/injection, schedule: Q01DX005 (ip), vehicle: saline): 1 of 6

SMILES: CCc1ccc(C(C)(C)C)cc1
- survivor count [3]: 6 of 6

SMILES: Cc1cc(=O)c2c(=O)[nH][nH]c2[nH]1
- survivor count [11]: 3 of 6

SMILES: C[N+]1(C)CCC(c2ccccc2)(c2ccccc2)C(=O)C1
- survivor count [4]: 0 of 6

SMILES: COC(=O)C1C(O)C(C)C(O)OC1C(C)C(O)C(C)/C=C\C=C(/C)C(=O)Nc1c(C)c(OC(C)=O)c2c(c1O)C(=O)C(C)=C1OCOC(/C(C)=C/C(C)=O)=C12 (configuration not stated)
- survivor count [12]: 3 of 6

SMILES: O=S(=O)(F)c1cccc(Cl)c1C[P+](c1ccccc1)(c1ccccc1)c1ccccc1
- survivor count (T/C endpoint: mean survival time, dose: 50.0 mg/kg/injection, schedule: Q01DX001 (ip), vehicle: Klucel (hydroxypropylcellulose) (HPC)): 3 of 6

SMILES: OCCc1ccncc1
- survivor count (T/C endpoint: mean survival time, dose: 400.0 mg/kg/injection, schedule: Q01DX001 (ip), vehicle: saline): 0 of 4

SMILES: CCCCCCCN(CCCCCCC)CC(O)c1cc2ccc(Br)cc2c2cccnc12 (configuration not stated)
- survivor count [11]: 4 of 6

SMILES: CC(C)CCC(=O)c1ccccc1
- survivor count (T/C endpoint: mean survival time, dose: 400.0 mg/kg/injection, schedule: Q04DX002 (ip), vehicle: saline with Tween-80): 3 of 3

SMILES: CNC(=S)C(=S)NC
- survivor count [9]: 5 of 6
- survivor count [2]: 0 of 6

SMILES: Cn1ccc(=Nc2ccc(NC(=O)c3ccc(N=c4ccn(C)c5ccc([N+](=O)[O-])cc45)cc3)cc2)cc1
- T/C (T/C endpoint: mean survival time, dose: 50.0 mg/kg/injection, schedule: Q01DX009 (ip), vehicle: water): 129 % of control [5 of 6 alive]
- survivor count (T/C endpoint: mean survival time, dose: 100.0 mg/kg/injection, schedule: Q01DX009 (ip), vehicle: water): 1 of 6

SMILES: O=[N+]([O-])O.[Cd].c1ccncc1
- survivor count [6]: 0 of 6
- survivor count [7]: 0 of 6
- survivor count [4]: 0 of 6

SMILES: N#CCCP(CCC#N)CCCCP(CCC#N)CCC#N
- survivor count (T/C endpoint: mean survival time, dose: 50.0 mg/kg/injection, schedule: Q01DX001 (ip), vehicle: saline with Tween-80): 3 of 6
- survivor count (T/C endpoint: mean survival time, dose: 100.0 mg/kg/injection, schedule: Q01DX001 (ip), vehicle: saline with Tween-80): 1 of 6

SMILES: Nc1ccc(CSc2ccc(Cl)cc2)cc1
- survivor count (T/C endpoint: mean survival time, dose: 100.0 mg/kg/injection, schedule: Q04DX002 (ip), vehicle: Klucel (hydroxypropylcellulose) (HPC)): 3 of 3
- survivor count (T/C endpoint: mean survival time, dose: 200.0 mg/kg/injection, schedule: Q04DX002 (ip), vehicle: Klucel (hydroxypropylcellulose) (HPC)): 3 of 3

SMILES: CC1CC(C)(C)N=C(C(C)CC2CCCCC2)O1 (configuration not stated)
- survivor count [10]: 1 of 6

SMILES: CSc1cc(C)[o+]c(C)c1
- survivor count (T/C endpoint: mean survival time, dose: 400.0 mg/kg/injection, schedule: Q01DX009 (ip), vehicle: Klucel (hydroxypropylcellulose) (HPC)): 0 of 6

SMILES: CNCC(O)c1ccc(O)cc1 (configuration not stated)
- survivor count [12]: 3 of 6

SMILES: ClC1=C(Cl)C(Cl)=C(Cl)C1=Cc1ccccc1
- survivor count [5]: 5 of 10
